Measured values as given in paper PMC11591752, “Novel Inhibitory Actions of Neuroactive Steroid [3α,5α]-3-Hydroxypregnan-20-One on Toll-like Receptor 4-Dependent Neuroimmune Signaling” (Biomolecules, 2024).
These are yes or no findings as the source states them, for the method shown. Binding seen in cells or lysates may run through a third protein. Binding calls can cover weak binding; strength is not graded here.

Target: T1, Toll-like receptor 4 (TLR4) (rat (endogenous in P rat hippocampus)) (UniProt Q9QX05)
T1 sequence: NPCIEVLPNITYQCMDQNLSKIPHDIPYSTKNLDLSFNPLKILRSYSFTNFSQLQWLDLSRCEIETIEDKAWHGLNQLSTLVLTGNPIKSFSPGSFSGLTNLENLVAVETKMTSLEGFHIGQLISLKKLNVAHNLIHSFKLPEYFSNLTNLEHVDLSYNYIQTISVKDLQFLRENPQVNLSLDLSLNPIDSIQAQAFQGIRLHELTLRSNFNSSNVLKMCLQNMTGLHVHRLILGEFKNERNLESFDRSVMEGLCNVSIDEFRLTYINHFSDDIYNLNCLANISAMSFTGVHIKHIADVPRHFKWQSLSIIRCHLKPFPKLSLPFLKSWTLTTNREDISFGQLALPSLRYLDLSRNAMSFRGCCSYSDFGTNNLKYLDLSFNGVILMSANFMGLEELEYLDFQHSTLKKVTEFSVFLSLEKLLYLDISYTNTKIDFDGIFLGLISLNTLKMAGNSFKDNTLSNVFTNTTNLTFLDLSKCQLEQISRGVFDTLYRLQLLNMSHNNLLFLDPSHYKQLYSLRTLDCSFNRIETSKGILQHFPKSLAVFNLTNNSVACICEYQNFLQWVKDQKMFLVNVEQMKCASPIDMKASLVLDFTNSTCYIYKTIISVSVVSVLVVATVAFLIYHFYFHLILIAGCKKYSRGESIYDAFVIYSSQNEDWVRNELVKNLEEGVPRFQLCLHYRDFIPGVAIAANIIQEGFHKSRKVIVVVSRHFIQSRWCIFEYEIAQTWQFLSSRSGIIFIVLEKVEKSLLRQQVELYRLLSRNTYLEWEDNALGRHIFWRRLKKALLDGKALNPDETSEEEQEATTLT
Test: co-IP; TLR4 antibody (6 µg, Santa Cruz SC-25) on hippocampal lysate of male and female P rats, Protein G agarose, immunoblot for MD-2; animals treated with vehicle or 3α,5α-THP (15 mg/kg, 30 min) before

- binding: binds
Substance: myeloid differentiation factor 2 (MD-2) (rat (endogenous in P rat hippocampus))
